# Source: PMC6237130, “Disarming the virulence arsenal of Pseudomonas aeruginosa by blocking two-component system signaling” (Chemical Science, 2018)
# How the values were obtained:
# P. aeruginosa PA14 [1] = experiment: LC-MS/MS analyses of metabolites in PA14 culture supernatant; assay type: cell-based, Pseudomonas aeruginosa; conditions: 200 μM, 9 h, 37 °C, relative to DMSO control, normalized to OD620
# Description: LC-MS analyses of metabolites
# P. aeruginosa PA14 strain was grown overnight (~16 h) in LB media at 37 °C and 200 RPM.
# The overnight culture was diluted 1:100 in fresh LB media. 4 mL of this culture was added into a 15 mL borosilicate glass tube, to which Rilu-inhibitors in DMSO were added to a final concentration of 200 µM (for the control experiments, same amount of DMSO was added).
# These cultures were grown for 9 h (late exponential phase) or 24 h (stationary phase) at 37 °C and 200 RPM. The OD620 values were measured using a spectrophotometer. 1 mL of each culture was placed in a 1.7 mL Eppendorf tube, centrifuged at 5,000 g for 5 min and the supernatant was removed from the cell pellets. The supernatants were directly analyzed on an ESI-LC-MS/MS instrument for metabolites and the cell pellets (from 9 h cultures) were further used for RNA extraction in q-PCR experiments. […]
# instrument. Injections of 2 µ L were separated on Zorbax Eclipse plus C18 column (2.1 mm x 50 mm) and with mobile phases A (5% MeOH:95% water with 0.1% formic acid) and B (95% MeOH:5% water with 0.1% formic acid). […] Samples were measured in positive ion mode and data was collected in triplicate. Data were analyzed using the Agilent MassHunter Quantitative Analysis suite. […] The following ions were analyzed: […]
# P. aeruginosa PA14 [2] = experiment: Growth of PA14 cultures with inhibitors (OD620, CFU); assay type: cell-based, Pseudomonas aeruginosa; conditions: Table S3, PA14 cultures for metabolomics, 200 µM, 37 °C
structure (smiles),measurement,setting,value
"Nc1nc2ccc(OC(F)(F)F)cc2s1 [Rilu-1, riluzole, reference compound]",Increase of HHQ level,P. aeruginosa PA14 [1],~24%
same,"t = 9 h, OD620",P. aeruginosa PA14 [2],0.817
same,"t = 24 h, OD620",P. aeruginosa PA14 [2],1.63
